The series in a line: general procedure: solution-phase peptide synthesis; (1-cyano-2-ethoxy-2-oxoethylideneaminooxy)dimethylamino-morpholino-carbenium hex. The settings on record: coupling step.

Consider two substances from patent US12466850B2 (priority 2019, dated 2025).

Boc-Val-Pro-Phe-Phe-OFESE came in with a step yield (two-step yield) of 91%.
For “Cbz-Ser(t-Bu)-Dap(Boc)-Val-Pro-Phe-Phe-OFESE”, where the note is “four-step yield”, the step yield was found to be 78%.
